Test results taken from PubChem BioAssay AID504467 (National Center for Advancing Translational Sciences (NCATS), 2011).
The whole screen tested about 330,000 compounds, of which about 7,700 (2.3%) were called active. Inconclusive means that the source gave no clear call. Such entries were picked first, then a sample of the others. Calls come from the whole dose curve; as a rule, active = well fitted inhibition curve with a large enough effect; inconclusive = small, poorly fitted or top-dose-only effect, or effect the other way; inactive = flat fitted curve, though single readings scatter. A potency beside an inconclusive call is a rough fit, not a confirmed value.

Experiment: qHTS screen for small molecules that inhibit ELG1-dependent DNA repair in human embryonic kidney (HEK293T) cells expressing luciferase-tagged ELG1; note: nearly all actives have a fitted effect of over 55% in size
Settings: HEK293T ELG1-luciferase reporter, luminescence, 16 h, DNA damage induced by 5-fluorouridine; activity change, negative = inhibition: at 46.1 µM (top of the series)
Method in brief: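 In this reporter screen, reduction of luminescence relative to DMSO vehicle indicated activity. Compounds and 5-fluorouridine were added together to 2,000 cells per well, incubated for 16 hr at 37 °C, then developed with ONE-Glo.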
% is set by controls: 0 for no effect and ±100 for the full control effect; potency is the fitted concentration of half-maximal effect.

Row | SMILES | Potency | activity change, negative = inhibition
1 | COc1cccc(NC(=O)Nc2nnc(N3C(C)CCCC3C)s2)c1 (stereo not drawn) | inconclusive: 18.3 µM [inhibitor, partial curve] | 
2 | O=C(CCc1nc(-c2ccccc2)c(-c2ccccc2)o1)OCc1ccc(Br)cc1 | inconclusive: 0.184 µM [inhibitor, partial curve, poor fit] | 
3 | O=[N+]([O-])c1ccc(Sc2cccc3cccnc23)cc1 | inconclusive: 20.6 µM [activator, partial curve] | 
4 | COC(=O)c1ccsc1NC(=O)CN1CCN(c2ccc(F)cc2)CC1 | inconclusive: 11.6 µM [inhibitor, single point] | 
5 | Cc1ccc(NC(=O)CSc2ccc(-c3cccnc3)nn2)cc1Cl | inconclusive: 20.6 µM [inhibitor, partial curve] | 
6 | O=C(c1ccco1)N1CCN(C(=O)c2ccc(COc3ccc(F)cc3)o2)CC1 | inconclusive: 20.6 µM [inhibitor, single point] | 
7 | CC(C)C(NS(=O)(=O)c1cccc(C(F)(F)F)c1)C(=O)N1CCc2ccccc2C1 (stereo not drawn) |  | inactive: -19.7%
8 | Cn1c(=O)c2c(nc(Cc3ccc(N)cc3)n2C)n(C)c1=O |  | inactive: -19.3%
9 | COc1ccc(S(=O)(=O)N2CCCN(S(=O)(=O)c3ccc(OC)c(C)c3)CC2)cc1C | inconclusive: 29.1 µM [inhibitor, single point] | 
10 | CCCc1cc(-c2nc(N)ncc2-c2ccc3c(c2)OCCCO3)c(O)cc1OC | inconclusive: 18.4 µM [inhibitor, single point] | 
11 | CC(=O)c1ccc(NC(=S)NCc2cccnc2)cc1 | inconclusive: 29.1 µM [inhibitor, single point] | 
12 | CCc1nnc(NS(=O)(=O)c2ccc(NC(=O)c3cc(Cl)ccc3OC)cc2)s1 | inconclusive: 29.1 µM [activator, single point] | 
13 | Nc1nnc(SCc2ccccc2F)s1 | inconclusive: 29.1 µM [activator, partial curve, poor fit] | 
14 | CCc1cc2c(CN(C)Cc3ccccc3F)cc(=O)oc2cc1O |  | inactive: -16.8%
15 | CC1(c2ccccn2)Nc2ccccc2-c2nc3ccccc3n21 (stereo not drawn) | inconclusive: 32.6 µM [activator, partial curve, poor fit] | 
16 | Cn1c(N)c(C(=O)COC(=O)C2CC(O)CN2S(=O)(=O)c2ccc(Cl)cc2)c(=O)n(C)c1=O (stereo not drawn) |  | inactive: -12.6%
17 | CCOC(=O)C1=C(C2=CCCCC2)c2ccc(OC)cc2N(S(=O)(=O)C(F)(F)F)C1C(=O)OCC (stereo not drawn) |  | inactive: -20.1%
18 | NC(=O)CSc1nnc(-c2ccc(S(=O)(=O)N3CCCC3)cc2)n1Cc1ccco1 |  | inactive: 0.493%
19 | Cc1cc2c(ccc3c2no[n+]3[O-])nn1 |  | inactive: -0.551%
20 | COc1ccc(-c2cc(C(=O)N3CCN(c4ccccc4)CC3)no2)cc1 | inconclusive: 7.3 µM [activator, partial curve] | 
21 | O=C(COc1ccc2ccccc2c1)Nc1ccc(Cc2ccncc2)cc1 |  | inactive: -27.5%
22 | CCN(CC)C(=O)c1ccc(S(=O)(=O)N2CCC(c3nc4ccccc4s3)CC2)cc1 | inconclusive: 5.17 µM [inhibitor, full curve] | 

Some of the entries above, reformatted.
O=C(c1ccco1)N1CCN(C(=O)c2ccc(COc3ccc(F)cc3)o2)CC1
  Potency: inconclusive: 20.6 µM [inhibitor, single point]
CCCc1cc(-c2nc(N)ncc2-c2ccc3c(c2)OCCCO3)c(O)cc1OC
  Potency: inconclusive: 18.4 µM [inhibitor, single point]

The results go on.

Row | SMILES | Potency | activity change, negative = inhibition
23 | Cc1ccc(S(=O)(=O)N2CCN(C(=O)Cn3cnc4c3c(=O)n(C)c(=O)n4C)CC2)cc1C | inconclusive: 20.6 µM [inhibitor, single point] | 
24 | Cc1cc(C)c(C#N)c(N2CCN(C(=O)C3COc4ccccc4O3)CC2)n1 (stereo not drawn) | inconclusive: 9.2 µM [inhibitor, partial curve, poor fit] | 
25 | CCCCN(C(=O)CSc1nnc(-c2ccc(OC)cc2)n1C(C)C)c1c(N)n(Cc2ccccc2)c(=O)[nH]c1=O | inconclusive: 16.4 µM [inhibitor, partial curve] | 
26 | N#Cc1c(-c2ccco2)cc(-c2ccccn2)nc1N | inconclusive: 23.1 µM [inhibitor, partial curve] | 
27 | CN1C(=O)C2(C(C#N)=C(N)Oc3n[nH]c(-c4ccc(Cl)cc4)c32)c2ccccc21 (stereo not drawn) |  | inactive: -2.78%
28 | O=C(COC(=O)CCSc1ccccc1)NCc1ccccc1Cl | inconclusive: 29.1 µM [activator, single point] | 
29 | Cn1cccc1C(=O)C(=O)Nc1ccccc1C(F)(F)F | inconclusive: 29.1 µM [activator, single point] | 
30 | Nc1ccccc1SCc1ccccc1Cl |  | inactive: 1.3%
31 | O=C(Nc1ccccc1)c1ccc(Cn2cc(C(F)(F)F)ccc2=O)cc1 |  | inactive: -11.1%
32 | CCOC(=O)c1ccc(NCc2cccnc2)cc1 | inconclusive: 20.6 µM [activator, partial curve] | 
33 | Cc1ccc(/C=C/c2nnc(-c3cccs3)o2)cc1 | inconclusive: 9.2 µM [activator, partial curve] | 
34 | CC(C(=O)N1CCN(c2ccc(Cl)cc2)CC1)c1ncc(C(F)(F)F)cc1Cl (stereo not drawn) |  | inactive: -9.71%
35 | Cc1ccccc1Cn1c(=O)n(CCCC(=O)NCc2ccco2)c(=O)c2sccc21 | inconclusive: 16.4 µM [inhibitor, partial curve, poor fit] | 
36 | COc1ccc(C(=O)n2c(SC)nc3cc4c(cc32)OCCO4)cc1 | inconclusive: 23.1 µM [activator, single point] | 
37 | Cc1cc(NCc2ccccn2)n2ncc(-c3ccc(Cl)cc3)c2n1 | inconclusive: 6.51 µM [activator, partial curve] | 
38 | O=C(COc1cccc(Cl)c1)NCC(c1cccs1)N1CCOCC1 (stereo not drawn) | inconclusive: 35.5 µM [inhibitor, single point] | 
39 | Cc1cnc(CNC(=O)c2ccc3oc(Cc4ccc(Cl)cc4)nc3c2)cn1 | inconclusive: 18.3 µM [inhibitor, single point] | 
40 | COc1cc(/C=C2/C(C)=C(C#N)c3nc(N)c(C#N)c(C)c32)ccc1OCC(=O)O |  | inactive: -17.4%
41 | Nc1c(C(=O)NCCN2CCOCC2)c2nc3ccccc3nc2n1-c1ccccc1 | inconclusive: 18.4 µM [inhibitor, single point] | 
42 | C=C(C)COc1ccc(-c2nc(N)ncc2-c2ccc(OC)cc2)c(O)c1 | inconclusive: 14.6 µM [inhibitor, single point] | 
43 | N/C(=N\OC(=O)c1ccc([N+](=O)[O-])cc1Cl)c1ccccn1 | inconclusive: 0.411 µM [activator, full curve] | 
